Results: PMC12131583
Results are given in words; binding and its absence hold for the method and conditions named. In cells and extracts the contact can be indirect. These calls come from enrichment with a bait or labelling near it, and not all partners need be listed. Tags and fused reporters may be left off the sequences shown.

Amino acid sequences for entries named in this document (tags omitted).
UniProt P17742: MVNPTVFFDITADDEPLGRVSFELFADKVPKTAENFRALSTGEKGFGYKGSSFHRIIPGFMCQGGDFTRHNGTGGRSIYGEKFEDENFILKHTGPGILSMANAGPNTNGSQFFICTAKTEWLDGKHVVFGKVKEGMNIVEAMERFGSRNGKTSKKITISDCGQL

Molecular target: T1, HA-tagged PARP3 (PARP3-HA) (human) (UniProt Q9Y6F1)
T1 sequence: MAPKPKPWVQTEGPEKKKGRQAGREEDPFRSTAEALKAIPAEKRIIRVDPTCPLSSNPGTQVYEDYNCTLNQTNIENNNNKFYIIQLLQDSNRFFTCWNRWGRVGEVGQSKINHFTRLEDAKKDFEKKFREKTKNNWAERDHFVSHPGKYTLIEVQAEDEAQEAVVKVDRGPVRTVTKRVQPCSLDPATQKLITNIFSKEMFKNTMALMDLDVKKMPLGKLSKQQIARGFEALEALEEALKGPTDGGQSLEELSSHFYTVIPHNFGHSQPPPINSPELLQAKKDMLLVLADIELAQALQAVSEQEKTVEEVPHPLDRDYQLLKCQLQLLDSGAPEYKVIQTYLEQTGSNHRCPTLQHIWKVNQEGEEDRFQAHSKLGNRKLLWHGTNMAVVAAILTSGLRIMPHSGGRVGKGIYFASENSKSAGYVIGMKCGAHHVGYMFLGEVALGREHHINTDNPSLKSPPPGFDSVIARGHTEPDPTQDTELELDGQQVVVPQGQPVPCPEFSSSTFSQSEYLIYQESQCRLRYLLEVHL
Experiment: affinity purification with mass spectrometry; proteins interacting with HA-tagged PARP3 in RAW264.7 cells pulled down via co-immunoprecipitation and sequenced via mass spectrometry; intersected with mono-ADP-ribosylated proteins

binding: binds
Substance: Peptidyl-prolyl cis-trans isomerase A (Ppia) (from UniProt P17742 1-164)
